The supplement of paper PMC10849652
This is one part of the list.

Chains of the proteins cited; added tags and fusions are not shown. Lines headed by an entry give the natural chain unless they say otherwise; changes in a name come on top.
UniProt Q96FN9: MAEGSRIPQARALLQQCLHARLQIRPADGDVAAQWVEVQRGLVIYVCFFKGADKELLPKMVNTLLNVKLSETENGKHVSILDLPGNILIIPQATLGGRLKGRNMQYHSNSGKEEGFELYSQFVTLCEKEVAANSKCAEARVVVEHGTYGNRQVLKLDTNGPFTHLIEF
UniProt Q66K89: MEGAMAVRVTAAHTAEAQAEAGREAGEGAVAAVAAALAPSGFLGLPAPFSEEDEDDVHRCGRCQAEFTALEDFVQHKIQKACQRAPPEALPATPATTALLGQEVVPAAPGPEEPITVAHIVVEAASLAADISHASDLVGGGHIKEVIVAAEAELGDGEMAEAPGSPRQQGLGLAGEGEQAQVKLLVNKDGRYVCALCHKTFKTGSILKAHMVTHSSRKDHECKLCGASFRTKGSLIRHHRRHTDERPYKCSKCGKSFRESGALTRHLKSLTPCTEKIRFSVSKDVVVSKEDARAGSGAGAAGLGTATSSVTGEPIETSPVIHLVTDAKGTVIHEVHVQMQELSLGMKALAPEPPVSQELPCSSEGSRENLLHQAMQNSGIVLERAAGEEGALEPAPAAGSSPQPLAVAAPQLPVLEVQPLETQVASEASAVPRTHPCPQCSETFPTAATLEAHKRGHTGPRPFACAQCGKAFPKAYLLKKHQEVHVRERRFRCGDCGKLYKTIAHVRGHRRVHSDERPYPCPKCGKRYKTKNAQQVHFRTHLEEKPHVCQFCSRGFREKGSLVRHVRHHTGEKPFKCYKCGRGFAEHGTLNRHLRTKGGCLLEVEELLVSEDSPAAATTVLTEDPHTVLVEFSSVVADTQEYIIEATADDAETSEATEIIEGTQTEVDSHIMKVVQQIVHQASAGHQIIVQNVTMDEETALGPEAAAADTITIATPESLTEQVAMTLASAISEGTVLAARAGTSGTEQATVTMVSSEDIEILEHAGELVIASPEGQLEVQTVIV
UniProt Q96FJ2, whole entry, looked up: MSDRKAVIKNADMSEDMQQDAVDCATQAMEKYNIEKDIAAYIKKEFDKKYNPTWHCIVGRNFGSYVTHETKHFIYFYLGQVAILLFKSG
UniProt O95620: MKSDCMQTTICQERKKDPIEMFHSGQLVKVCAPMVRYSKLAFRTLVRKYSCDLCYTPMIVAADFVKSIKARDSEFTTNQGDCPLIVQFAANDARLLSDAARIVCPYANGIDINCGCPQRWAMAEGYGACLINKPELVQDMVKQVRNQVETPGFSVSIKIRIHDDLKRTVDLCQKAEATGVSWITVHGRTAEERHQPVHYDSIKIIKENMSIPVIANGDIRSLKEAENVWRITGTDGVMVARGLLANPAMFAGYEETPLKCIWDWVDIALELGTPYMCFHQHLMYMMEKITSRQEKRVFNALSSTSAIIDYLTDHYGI
UniProt Q9BQ95: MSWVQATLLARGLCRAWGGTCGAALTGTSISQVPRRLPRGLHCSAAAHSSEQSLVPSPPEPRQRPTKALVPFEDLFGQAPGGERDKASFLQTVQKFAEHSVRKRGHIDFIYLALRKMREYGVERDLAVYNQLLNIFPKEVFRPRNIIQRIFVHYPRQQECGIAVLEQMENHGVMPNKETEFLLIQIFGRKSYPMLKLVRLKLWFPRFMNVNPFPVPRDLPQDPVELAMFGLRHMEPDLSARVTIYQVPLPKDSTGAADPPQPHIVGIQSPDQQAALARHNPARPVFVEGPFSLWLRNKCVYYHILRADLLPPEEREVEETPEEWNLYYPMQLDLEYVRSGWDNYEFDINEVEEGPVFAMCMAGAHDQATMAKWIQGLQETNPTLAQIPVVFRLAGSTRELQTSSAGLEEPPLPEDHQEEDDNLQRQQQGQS
UniProt Q5VYK3, whole entry, looked up: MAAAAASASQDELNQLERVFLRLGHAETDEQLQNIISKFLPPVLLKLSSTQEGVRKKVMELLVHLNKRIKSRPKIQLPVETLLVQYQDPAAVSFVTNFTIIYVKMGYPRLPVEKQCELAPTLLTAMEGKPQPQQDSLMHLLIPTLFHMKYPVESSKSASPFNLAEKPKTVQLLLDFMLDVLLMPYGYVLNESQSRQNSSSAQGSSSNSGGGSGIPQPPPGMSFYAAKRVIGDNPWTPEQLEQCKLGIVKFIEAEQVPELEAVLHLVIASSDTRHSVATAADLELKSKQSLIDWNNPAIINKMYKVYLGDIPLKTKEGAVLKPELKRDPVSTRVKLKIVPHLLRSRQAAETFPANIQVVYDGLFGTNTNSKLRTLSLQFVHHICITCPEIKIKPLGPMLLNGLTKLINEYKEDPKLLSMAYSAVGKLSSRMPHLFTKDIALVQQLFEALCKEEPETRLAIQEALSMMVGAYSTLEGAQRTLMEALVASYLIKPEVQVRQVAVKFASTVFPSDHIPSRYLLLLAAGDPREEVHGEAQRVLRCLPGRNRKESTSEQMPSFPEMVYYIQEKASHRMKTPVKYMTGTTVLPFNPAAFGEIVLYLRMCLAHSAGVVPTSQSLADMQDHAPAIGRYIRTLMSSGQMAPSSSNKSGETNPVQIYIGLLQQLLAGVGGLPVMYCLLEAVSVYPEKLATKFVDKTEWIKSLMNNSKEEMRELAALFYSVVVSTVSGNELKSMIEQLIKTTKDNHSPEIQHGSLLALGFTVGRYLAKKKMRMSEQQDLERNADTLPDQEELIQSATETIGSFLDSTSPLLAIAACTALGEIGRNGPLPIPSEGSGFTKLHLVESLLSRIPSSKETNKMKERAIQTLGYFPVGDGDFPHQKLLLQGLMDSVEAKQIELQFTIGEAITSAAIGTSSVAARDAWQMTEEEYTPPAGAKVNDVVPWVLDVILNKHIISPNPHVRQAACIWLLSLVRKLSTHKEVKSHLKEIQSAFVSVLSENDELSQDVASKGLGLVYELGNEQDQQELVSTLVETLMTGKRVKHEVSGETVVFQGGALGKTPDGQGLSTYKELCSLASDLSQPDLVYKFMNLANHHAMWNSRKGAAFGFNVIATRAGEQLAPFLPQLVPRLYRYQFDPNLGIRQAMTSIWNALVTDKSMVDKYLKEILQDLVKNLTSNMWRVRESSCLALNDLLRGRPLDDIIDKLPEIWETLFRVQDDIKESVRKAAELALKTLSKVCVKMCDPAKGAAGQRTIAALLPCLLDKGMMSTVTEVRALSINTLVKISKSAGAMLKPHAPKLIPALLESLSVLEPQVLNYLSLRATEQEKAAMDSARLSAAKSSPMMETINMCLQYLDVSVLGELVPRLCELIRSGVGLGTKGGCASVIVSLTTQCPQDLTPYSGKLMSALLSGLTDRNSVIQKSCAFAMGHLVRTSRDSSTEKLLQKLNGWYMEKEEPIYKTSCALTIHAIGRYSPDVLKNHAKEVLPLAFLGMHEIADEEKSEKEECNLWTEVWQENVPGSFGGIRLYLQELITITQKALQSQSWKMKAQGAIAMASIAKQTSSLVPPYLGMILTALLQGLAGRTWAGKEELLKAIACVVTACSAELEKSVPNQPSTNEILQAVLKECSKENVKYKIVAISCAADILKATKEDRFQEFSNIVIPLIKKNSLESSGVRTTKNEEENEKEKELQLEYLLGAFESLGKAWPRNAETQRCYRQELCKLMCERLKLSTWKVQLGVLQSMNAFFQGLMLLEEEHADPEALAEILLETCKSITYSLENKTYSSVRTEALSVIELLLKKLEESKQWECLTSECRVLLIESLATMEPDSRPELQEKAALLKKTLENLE
UniProt P57772: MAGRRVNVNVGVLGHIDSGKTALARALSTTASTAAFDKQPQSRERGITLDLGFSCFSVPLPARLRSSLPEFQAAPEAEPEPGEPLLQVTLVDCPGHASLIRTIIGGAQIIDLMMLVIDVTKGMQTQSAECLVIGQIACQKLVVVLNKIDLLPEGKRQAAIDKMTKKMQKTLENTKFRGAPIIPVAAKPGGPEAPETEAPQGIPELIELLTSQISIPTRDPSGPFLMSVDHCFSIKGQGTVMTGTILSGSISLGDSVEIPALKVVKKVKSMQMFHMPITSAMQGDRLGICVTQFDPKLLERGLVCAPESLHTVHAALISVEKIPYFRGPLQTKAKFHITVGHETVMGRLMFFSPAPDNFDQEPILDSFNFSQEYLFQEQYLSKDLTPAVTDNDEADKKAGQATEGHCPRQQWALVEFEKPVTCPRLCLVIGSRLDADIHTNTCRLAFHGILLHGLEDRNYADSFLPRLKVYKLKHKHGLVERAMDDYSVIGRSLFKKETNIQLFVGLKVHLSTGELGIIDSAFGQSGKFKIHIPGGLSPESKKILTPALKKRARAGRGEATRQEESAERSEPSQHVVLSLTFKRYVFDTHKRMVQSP
UniProt Q6UX65: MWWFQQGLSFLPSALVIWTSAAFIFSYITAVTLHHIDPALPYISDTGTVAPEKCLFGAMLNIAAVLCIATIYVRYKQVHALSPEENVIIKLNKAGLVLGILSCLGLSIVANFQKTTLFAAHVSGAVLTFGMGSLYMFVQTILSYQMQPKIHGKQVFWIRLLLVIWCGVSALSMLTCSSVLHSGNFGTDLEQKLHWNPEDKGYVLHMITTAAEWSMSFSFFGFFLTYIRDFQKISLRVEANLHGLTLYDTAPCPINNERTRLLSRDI
UniProt Q05639, whole entry, looked up: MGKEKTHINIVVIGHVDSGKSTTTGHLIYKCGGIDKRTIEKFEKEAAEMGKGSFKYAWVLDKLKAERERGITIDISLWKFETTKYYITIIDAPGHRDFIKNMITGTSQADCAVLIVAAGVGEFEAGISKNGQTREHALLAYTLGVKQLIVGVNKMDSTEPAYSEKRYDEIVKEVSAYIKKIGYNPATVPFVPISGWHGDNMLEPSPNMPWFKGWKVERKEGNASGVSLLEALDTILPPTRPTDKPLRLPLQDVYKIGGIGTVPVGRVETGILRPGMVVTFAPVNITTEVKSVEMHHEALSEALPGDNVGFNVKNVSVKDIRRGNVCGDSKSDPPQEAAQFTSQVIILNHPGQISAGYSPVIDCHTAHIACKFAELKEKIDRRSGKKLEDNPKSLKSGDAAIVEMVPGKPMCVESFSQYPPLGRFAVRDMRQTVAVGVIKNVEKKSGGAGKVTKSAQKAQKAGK
UniProt Q08426: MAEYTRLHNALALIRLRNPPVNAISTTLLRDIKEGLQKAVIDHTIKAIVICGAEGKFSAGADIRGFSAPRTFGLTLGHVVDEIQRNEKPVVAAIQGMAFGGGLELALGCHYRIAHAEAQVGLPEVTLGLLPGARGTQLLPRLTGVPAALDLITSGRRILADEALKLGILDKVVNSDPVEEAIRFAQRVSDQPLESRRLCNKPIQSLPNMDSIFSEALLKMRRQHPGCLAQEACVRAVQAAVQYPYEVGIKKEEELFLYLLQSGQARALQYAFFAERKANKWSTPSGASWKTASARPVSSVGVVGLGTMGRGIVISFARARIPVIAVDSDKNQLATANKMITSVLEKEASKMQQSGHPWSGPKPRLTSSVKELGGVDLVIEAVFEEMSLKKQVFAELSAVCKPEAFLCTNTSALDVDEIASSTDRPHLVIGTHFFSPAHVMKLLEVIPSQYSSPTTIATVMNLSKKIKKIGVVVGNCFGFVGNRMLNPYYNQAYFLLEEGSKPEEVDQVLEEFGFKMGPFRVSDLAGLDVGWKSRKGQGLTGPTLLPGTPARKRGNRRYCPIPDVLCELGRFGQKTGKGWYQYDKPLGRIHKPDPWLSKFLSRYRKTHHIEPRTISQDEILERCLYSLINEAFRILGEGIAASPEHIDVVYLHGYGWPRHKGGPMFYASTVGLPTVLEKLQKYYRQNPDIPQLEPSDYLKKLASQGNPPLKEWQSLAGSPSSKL
UniProt O95905: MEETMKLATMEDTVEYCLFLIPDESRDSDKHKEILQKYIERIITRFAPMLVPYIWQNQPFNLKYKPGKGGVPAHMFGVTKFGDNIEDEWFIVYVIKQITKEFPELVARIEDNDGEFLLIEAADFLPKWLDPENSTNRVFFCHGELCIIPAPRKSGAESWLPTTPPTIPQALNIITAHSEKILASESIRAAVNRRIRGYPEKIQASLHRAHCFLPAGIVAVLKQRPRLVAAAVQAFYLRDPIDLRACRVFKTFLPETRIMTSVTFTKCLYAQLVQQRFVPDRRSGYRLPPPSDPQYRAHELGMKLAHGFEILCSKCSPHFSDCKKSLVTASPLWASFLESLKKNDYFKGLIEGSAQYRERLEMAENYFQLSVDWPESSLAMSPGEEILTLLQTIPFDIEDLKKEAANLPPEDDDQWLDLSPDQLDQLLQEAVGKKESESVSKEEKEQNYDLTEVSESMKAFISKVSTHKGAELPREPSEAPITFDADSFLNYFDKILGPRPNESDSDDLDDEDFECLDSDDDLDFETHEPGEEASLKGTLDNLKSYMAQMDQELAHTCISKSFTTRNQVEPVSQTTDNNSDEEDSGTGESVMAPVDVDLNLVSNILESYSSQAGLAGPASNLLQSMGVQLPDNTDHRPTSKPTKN
UniProt Q8TEA8: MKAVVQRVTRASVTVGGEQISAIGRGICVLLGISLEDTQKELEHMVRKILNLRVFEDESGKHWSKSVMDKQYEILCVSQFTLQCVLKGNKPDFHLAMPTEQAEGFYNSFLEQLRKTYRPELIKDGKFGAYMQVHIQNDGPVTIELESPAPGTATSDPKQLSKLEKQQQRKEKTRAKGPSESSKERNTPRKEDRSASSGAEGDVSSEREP

Tests used:
Assay in all cases: log2 fold change, soluble protein after heating vs DMSO (PISA); higher = thermal stabilisation; K562 lysate, 10 uM; active = over 0.2 and 3.5 SD of the protein, either way, in both replicates (recomputed)
[1] = compound: CS(=O)(=O)CCNCc1ccc(-c2ccc3ncnc(Nc4ccc(OCc5cccc(F)c5)c(Cl)c4)c3c2)o1 [lapatinib]
Procedure, shortened: (§1)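 Values give the log-two fold change in thermal stability against solvent controls, from duplicates. Crude K562 extract at 1 mg/mL protein, made by dounce homogenisation in PBS pH 7.4 with 1 mM MgCl2, was treated with 10 μM compound for 30 min. After 3 min heating across 48°C-58°C, aliquots were pooled, adjusted to 0.5% NP-40 at 4°C and centrifuged at 21,000xg for 90 min. The supernatant was measured by TMTpro 16plex LC-MS/MS with channel sums equalised.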

[2] = compound: CS(=O)(=O)N1CCN(Cc2cc3nc(-c4cccc5[nH]ncc45)nc(N4CCOCC4)c3s2)CC1 [pictilisib]
Procedure, shortened: as §1

[3] = compound: C[C@@H](Oc1cc(-c2cnn(C3CCNCC3)c2)cnc1N)c1c(Cl)ccc(F)c1Cl [crizotinib]
Procedure, shortened: as §1

[4] = compound: C[C@H](C1=CC=C(C=C1)C(=O)NC2=C3C=CNC3=NC=C2)N
Procedure, shortened: as §1

[5] = compound: C[C@H](Nc1ncnc2nc[nH]c12)c1cc2cccc(Cl)c2c(=O)n1-c1ccccc1 [duvelisib]
Procedure, shortened: as §1

[6] = compound: Cc1cc(Nc2cc(CN3CCOCC3)c3nc(C)c(Cc4ccc(Cl)cc4F)n3n2)n[nH]1 [gandotinib]
Procedure, shortened: as §1

[7] = compound: Cc1cc(Nc2cc(N3CCN(C)CC3)nc(Sc3ccc(NC(=O)C4CC4)cc3)n2)n[nH]1 [tozasertib]
Procedure, shortened: as §1

[8] = compound: Cc1ccc(-n2nc(C(C)(C)C)cc2NC(=O)Nc2ccc(OCCN3CCOCC3)c3ccccc23)cc1 [doramapimod]
Procedure, shortened: as §1

[9] = compound: Cc1ccc(NC(=O)c2ccc(CN3CC[C@H](N(C)C)C3)c(C(F)(F)F)c2)cc1Nc1nccc(-c2cncnc2)n1 [bafetinib]
Procedure, shortened: as §1

[10] = compound: Cc1cccc(CC(=O)N2CCc3c2ccc(-c2cn(C)c4ncnc(N)c24)c3F)n1
Procedure, shortened: as §1

[11] = compound: Cc1nc(Nc2ncc(C(=O)Nc3c(C)cccc3Cl)s2)cc(N2CCN(CCO)CC2)n1 [dasatinib]
Procedure, shortened: as §1

[12] = compound: Cn1cc(-c2ccc3c(c2)CCN3C(=O)Cc2cccc(C(F)(F)F)c2)c2c(N)ncnc21
Procedure, shortened: as §1

[13] = compound: Cn1cc(CNCC2CCN(c3ncc(C(=O)NO)cn3)CC2)c2ccccc21 [quisinostat]
Procedure, shortened: as §1

[14] = compound: NC(=O)Nc1cc(-c2cccc(F)c2)sc1C(=O)N[C@H]1CCCNC1
Procedure, shortened: as §1

[15] = compound: NC(=O)c1cnc(N[C@@H]2CCCC[C@@H]2N)nc1Nc1cccc(-n2nccn2)c1
Procedure, shortened: as §1

[16] = compound: NC1(c2ccc(-c3nc4ccn5c(=O)[nH]nc5c4cc3-c3ccccc3)cc2)CCC1
Procedure, shortened: as §1

[17] = compound: Cc1cn(-c2cc(NC(=O)c3ccc(C)c(Nc4nccc(-c5cccnc5)n4)c3)cc(C(F)(F)F)c2)cn1 [nilotinib]
Procedure, shortened: as §1

[18] = compound: Cc1nc(Nc2n[nH]c3c2CN(C(=O)N[C@H](CN(C)C)c2ccccc2)C3(C)C)c2sccc2n1
Procedure, shortened: as §1

[19] = compound: Cc1ncc(-c2ccnc(Nc3ccc(S(C)(=O)=O)cc3)n2)n1C(C)C
Procedure, shortened: as §1

[20] = compound: Cn1cncc1[C@@](N)(c1ccc(Cl)cc1)c1ccc2c(c1)c(-c1cccc(Cl)c1)cc(=O)n2C [tipifarnib]
Procedure, shortened: as §1

Measured: log2 fold change

DTD2 (UniProt Q96FN9)
inactive: [1] -0.049 | [2] 0.081 | [3] 0.122 | [4] -0.094 | [5] -0.005 | [6] 0.184 | [7] 0.157 | [8] -0.022 | [9] -0.413 | [10] 0.17 | [11] 0.097 | [12] -0.023 | [13] 0.054 | [14] 0.047 | [15] -0.047 | [16] 0.084

E4F1 (UniProt Q66K89)
inactive: [1] 0.08 | [2] -0.269 | [3] -0.092 | [4] 0.059 | [5] 0.049 | [6] 0.015 | [8] -0.094 | [9] 0.012 | [10] 0.058 | [17] -0.375 | [18] -0.063 | [11] -0.024 | [19] 0.235 | [12] -0.073 | [13] 0.01 | [20] 0.027 | [14] 0.008 | [15] 0.019 | [16] -0.078

DYNLL2 (UniProt Q96FJ2)
inactive: [1] -0.038 | [2] -0.026 | [3] -0.036 | [4] -0.04 | [5] 0.035 | [6] 0.014 | [7] -0.034 | [8] 0.031 | [9] 0.022 | [10] 0.02 | [17] 0.069 | [18] 0.037 | [11] -0.06 | [19] 0.092 | [12] 0.006 | [13] -0.003 | [20] 0.033 | [14] -0.088 | [15] -0.016 | [16] 0.094

DYNC1H1 (UniProt Q14204)
inactive: [1] -0.012 | [2] -0.013 | [3] -0.021 | [4] 0.007 | [5] -0.017 | [6] -0.088 | [7] 0.006 | [8] 0.012 | [9] -0.024 | [10] -0.001 | [17] -0.002 | [18] 0.005 | [11] -0.012 | [19] -0.005 | [12] 0.028 | [13] 0.008 | [20] -0.002 | [14] 0.022 | [15] 0.008 | [16] -0.002

DUS4L (UniProt O95620)
inactive: [1] 0.001 | [2] 0.056 | [3] -0.048 | [4] -0.021 | [5] 0.057 | [6] 0.023 | [7] -0.019 | [8] -0.009 | [9] -0.071 | [10] 0.045 | [17] 0.063 | [18] -0.071 | [11] 0.044 | [19] 0.14 | [12] -0.026 | [13] -0.11 | [20] -0.082 | [14] 0.028 | [15] 0.005 | [16] 0.004

DRG2 (UniProt P55039)
inactive: [1] -0.024 | [2] -0.002 | [3] -0.021 | [4] -0.047 | [5] -0.001 | [6] -0.01 | [7] 0.016 | [8] 0.04 | [9] -0.044 | [10] -0.005 | [17] 0.011 | [18] -0.019 | [11] -0.013 | [19] 0.004 | [12] -0.029 | [13] -0.053 | [20] 0.019 | [14] 0.037 | [15] -0.023 | [16] -0.036

ECSIT (UniProt Q9BQ95)
inactive: [1] -0.062 | [2] -0.044 | [3] -0.004 | [4] -0.016 | [5] -0.011 | [6] -0.049 | [7] -0.018 | [8] -0.042 | [9] 0.003 | [10] 0.013 | [17] -0.021 | [18] -0.004 | [11] 0.027 | [19] 0.069 | [12] -0.038 | [13] 0.011 | [20] 0.022 | [14] -0.017 | [15] 0.041 | [16] -0.001

ECPAS (UniProt Q5VYK3)
inactive: [1] -0.034 | [2] -0.019 | [3] -0.014 | [4] -0.012 | [5] -0.002 | [6] -0.135 | [7] 0.008 | [8] 0.005 | [9] -0.044 | [10] 0.03 | [17] -0.011 | [18] 0.009 | [11] -0.052 | [19] -0.001 | [12] 0.023 | [13] 0.007 | [20] -0.008 | [14] 0.03 | [15] 0.008 | [16] 0.022

EEFSEC (UniProt P57772)
inactive: [1] -0.019 | [2] 0.008 | [3] -0.042 | [4] -0.043 | [5] 0.031 | [6] -0.023 | [7] 0.024 | [8] 0.022 | [9] -0.079 | [10] 0.041 | [17] 0.004 | [18] 0.01 | [11] -0.067 | [19] -0.03 | [12] 0.007 | [13] -0.043 | [20] -0.003 | [14] 0.052 | [15] 0 | [16] -0.019

DRAM2 (UniProt Q6UX65)
inactive: [1] 0.077 | [2] -0.088 | [3] -0.043 | [4] -0.085 | [6] 0.16 | [8] 0.044 | [9] 0.032 | [10] 0.166 | [17] 0.044 | [18] -0.007 | [19] -0.034 | [13] -0.036 | [20] 0.137 | [14] -0.029 | [15] -0.042

EEF1A2 (UniProt Q05639)
inactive: [1] 0.001 | [2] 0.008 | [3] -0.025 | [4] -0.009 | [5] 0.009 | [6] -0.016 | [7] -0.017 | [8] 0.005 | [9] -0.037 | [10] 0.006 | [17] 0 | [18] -0.026 | [11] -0.033 | [19] 0 | [12] -0.018 | [13] -0.028 | [20] 0.057 | [14] 0.023 | [15] 0.001 | [16] -0.004

DPP7 (UniProt Q9UHL4)
inactive: [1] 0.013 | [2] -0.033 | [3] 0.008 | [4] 0.009 | [5] 0.021 | [6] -0.011 | [7] -0.032 | [8] -0.023 | [9] -0.011 | [10] 0.093 | [17] -0.001 | [18] -0.035 | [11] 0.018 | [19] -0.096 | [12] 0.013 | [13] -0.038 | [20] 0.02 | [14] 0.002 | [15] -0.025 | [16] -0.017

DYNC1I2 isoform 2 (UniProt Q13409)
inactive: [1] 0.029 | [2] 0.078 | [3] -0.031 | [4] 0.096 | [5] 0.015 | [6] -0.132 | [7] 0.001 | [8] -0.011 | [9] -0.041 | [10] -0.012 | [11] -0.058 | [12] 0.046 | [13] -0.009 | [14] 0.024 | [15] -0.008 | [16] -0.025

EHHADH (UniProt Q08426)
inactive: [1] -0.037 | [2] 0.143 | [3] -0.001 | [4] 0.016 | [5] 0.051 | [6] -0.117 | [7] 0.045 | [8] 0.048 | [9] 0.06 | [10] 0 | [17] -0.048 | [18] -0.091 | [11] -0.011 | [19] 0.045 | [12] -0.047 | [13] -0.072 | [20] 0.052 | [14] -0.003 | [15] 0.025 | [16] 0.097

EEF2K (UniProt O00418)
inactive: [1] 0.051 | [2] -0.027 | [3] -0.049 | [4] -0.004 | [5] 0.057 | [6] -0.034 | [7] 0.04 | [8] 0.006 | [9] -0.086 | [10] -0.005 | [17] 0.054 | [18] 0.003 | [11] -0.029 | [19] -0.004 | [12] -0.007 | [13] -0.053 | [20] 0.003 | [14] 0.069 | [15] -0.023 | [16] 0.003

ECD isoform 3 (UniProt O95905)
inactive: [1] 0.009 | [2] -0.018 | [3] -0.123 | [4] -0.018 | [5] -0.035 | [6] -0.034 | [7] -0.065 | [8] 0.017 | [9] -0.061 | [10] 0.023 | [17] 0.005 | [18] -0.002 | [11] -0.081 | [19] -0.016 | [12] 0.066 | [13] -0.053 | [20] -0.006 | [14] 0.04 | [15] -0.039 | [16] -0.032

DTD1 (UniProt Q8TEA8)
inactive: [1] 0.035 | [2] -0.008 | [3] 0.05 | [4] -0.055 | [5] 0.047 | [6] 0.054 | [7] 0.017 | [8] 0.039 | [9] 0.034 | [10] 0.025 | [17] -0.037 | [18] -0.028 | [11] 0.018 | [19] 0.015 | [12] -0.009 | [13] 0.016 | [20] -0.009 | [14] 0.006 | [15] 0.015 | [16] 0.048

Pulled one by one from the entries so far (two):
EEF2K (UniProt O00418)
inactive: [1] 0.051 | [2] -0.027 | [3] -0.049 | [4] -0.004 | [5] 0.057 | [6] -0.034 | [7] 0.04 | [8] 0.006 | [9] -0.086 | [10] -0.005 | [17] 0.054 | [18] 0.003 | [11] -0.029 | [19] -0.004 | [12] -0.007 | [13] -0.053 | [20] 0.003 | [14] 0.069 | [15] -0.023 | [16] 0.003

EHHADH (UniProt Q08426)
inactive: [1] -0.037 | [2] 0.143 | [3] -0.001 | [4] 0.016 | [5] 0.051 | [6] -0.117 | [7] 0.045 | [8] 0.048 | [9] 0.06 | [10] 0 | [17] -0.048 | [18] -0.091 | [11] -0.011 | [19] 0.045 | [12] -0.047 | [13] -0.072 | [20] 0.052 | [14] -0.003 | [15] 0.025 | [16] 0.097
